Data on 2 substances can be found in publication PMC5668370.

Chains of the proteins cited; added tags and fusions are not shown.
UniProt Q5NCX5: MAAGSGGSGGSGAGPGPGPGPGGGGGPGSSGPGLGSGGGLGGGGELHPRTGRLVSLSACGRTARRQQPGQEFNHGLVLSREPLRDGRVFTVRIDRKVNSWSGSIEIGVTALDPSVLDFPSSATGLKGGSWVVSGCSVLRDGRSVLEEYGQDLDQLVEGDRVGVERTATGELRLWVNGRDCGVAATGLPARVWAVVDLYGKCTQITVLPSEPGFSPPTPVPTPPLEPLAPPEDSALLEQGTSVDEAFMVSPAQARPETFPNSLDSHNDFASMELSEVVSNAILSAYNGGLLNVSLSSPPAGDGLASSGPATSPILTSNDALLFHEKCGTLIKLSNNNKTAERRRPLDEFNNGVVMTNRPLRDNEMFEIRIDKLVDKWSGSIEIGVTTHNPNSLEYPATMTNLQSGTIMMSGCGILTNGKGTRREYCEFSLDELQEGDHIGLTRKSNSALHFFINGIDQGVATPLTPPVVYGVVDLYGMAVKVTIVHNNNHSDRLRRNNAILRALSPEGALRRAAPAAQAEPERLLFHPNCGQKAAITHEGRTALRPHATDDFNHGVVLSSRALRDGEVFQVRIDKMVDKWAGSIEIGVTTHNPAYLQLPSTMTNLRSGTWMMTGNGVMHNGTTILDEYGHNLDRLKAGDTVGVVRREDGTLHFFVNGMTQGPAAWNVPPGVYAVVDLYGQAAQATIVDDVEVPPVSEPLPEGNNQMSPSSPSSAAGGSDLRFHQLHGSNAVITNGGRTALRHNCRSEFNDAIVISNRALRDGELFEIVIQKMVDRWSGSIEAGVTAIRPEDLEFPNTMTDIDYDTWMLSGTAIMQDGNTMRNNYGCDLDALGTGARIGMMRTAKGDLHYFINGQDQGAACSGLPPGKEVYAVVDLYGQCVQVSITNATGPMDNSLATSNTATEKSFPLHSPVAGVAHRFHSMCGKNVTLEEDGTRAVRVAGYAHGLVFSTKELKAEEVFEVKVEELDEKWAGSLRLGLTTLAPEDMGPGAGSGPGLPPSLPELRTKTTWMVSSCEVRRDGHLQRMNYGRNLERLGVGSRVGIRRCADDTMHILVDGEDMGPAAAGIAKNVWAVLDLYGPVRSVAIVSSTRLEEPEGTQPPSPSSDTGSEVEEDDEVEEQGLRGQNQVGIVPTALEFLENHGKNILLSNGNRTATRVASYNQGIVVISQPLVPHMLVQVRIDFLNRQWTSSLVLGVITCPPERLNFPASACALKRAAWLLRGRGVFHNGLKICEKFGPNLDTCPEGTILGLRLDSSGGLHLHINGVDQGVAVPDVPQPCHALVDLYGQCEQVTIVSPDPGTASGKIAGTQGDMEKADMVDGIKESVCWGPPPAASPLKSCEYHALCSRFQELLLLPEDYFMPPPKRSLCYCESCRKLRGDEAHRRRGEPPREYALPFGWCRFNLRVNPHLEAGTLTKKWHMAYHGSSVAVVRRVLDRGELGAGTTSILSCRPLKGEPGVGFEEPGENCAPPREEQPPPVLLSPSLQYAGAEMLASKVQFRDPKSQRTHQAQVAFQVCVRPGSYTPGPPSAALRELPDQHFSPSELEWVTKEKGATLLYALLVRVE
UniProt Q4U2R1: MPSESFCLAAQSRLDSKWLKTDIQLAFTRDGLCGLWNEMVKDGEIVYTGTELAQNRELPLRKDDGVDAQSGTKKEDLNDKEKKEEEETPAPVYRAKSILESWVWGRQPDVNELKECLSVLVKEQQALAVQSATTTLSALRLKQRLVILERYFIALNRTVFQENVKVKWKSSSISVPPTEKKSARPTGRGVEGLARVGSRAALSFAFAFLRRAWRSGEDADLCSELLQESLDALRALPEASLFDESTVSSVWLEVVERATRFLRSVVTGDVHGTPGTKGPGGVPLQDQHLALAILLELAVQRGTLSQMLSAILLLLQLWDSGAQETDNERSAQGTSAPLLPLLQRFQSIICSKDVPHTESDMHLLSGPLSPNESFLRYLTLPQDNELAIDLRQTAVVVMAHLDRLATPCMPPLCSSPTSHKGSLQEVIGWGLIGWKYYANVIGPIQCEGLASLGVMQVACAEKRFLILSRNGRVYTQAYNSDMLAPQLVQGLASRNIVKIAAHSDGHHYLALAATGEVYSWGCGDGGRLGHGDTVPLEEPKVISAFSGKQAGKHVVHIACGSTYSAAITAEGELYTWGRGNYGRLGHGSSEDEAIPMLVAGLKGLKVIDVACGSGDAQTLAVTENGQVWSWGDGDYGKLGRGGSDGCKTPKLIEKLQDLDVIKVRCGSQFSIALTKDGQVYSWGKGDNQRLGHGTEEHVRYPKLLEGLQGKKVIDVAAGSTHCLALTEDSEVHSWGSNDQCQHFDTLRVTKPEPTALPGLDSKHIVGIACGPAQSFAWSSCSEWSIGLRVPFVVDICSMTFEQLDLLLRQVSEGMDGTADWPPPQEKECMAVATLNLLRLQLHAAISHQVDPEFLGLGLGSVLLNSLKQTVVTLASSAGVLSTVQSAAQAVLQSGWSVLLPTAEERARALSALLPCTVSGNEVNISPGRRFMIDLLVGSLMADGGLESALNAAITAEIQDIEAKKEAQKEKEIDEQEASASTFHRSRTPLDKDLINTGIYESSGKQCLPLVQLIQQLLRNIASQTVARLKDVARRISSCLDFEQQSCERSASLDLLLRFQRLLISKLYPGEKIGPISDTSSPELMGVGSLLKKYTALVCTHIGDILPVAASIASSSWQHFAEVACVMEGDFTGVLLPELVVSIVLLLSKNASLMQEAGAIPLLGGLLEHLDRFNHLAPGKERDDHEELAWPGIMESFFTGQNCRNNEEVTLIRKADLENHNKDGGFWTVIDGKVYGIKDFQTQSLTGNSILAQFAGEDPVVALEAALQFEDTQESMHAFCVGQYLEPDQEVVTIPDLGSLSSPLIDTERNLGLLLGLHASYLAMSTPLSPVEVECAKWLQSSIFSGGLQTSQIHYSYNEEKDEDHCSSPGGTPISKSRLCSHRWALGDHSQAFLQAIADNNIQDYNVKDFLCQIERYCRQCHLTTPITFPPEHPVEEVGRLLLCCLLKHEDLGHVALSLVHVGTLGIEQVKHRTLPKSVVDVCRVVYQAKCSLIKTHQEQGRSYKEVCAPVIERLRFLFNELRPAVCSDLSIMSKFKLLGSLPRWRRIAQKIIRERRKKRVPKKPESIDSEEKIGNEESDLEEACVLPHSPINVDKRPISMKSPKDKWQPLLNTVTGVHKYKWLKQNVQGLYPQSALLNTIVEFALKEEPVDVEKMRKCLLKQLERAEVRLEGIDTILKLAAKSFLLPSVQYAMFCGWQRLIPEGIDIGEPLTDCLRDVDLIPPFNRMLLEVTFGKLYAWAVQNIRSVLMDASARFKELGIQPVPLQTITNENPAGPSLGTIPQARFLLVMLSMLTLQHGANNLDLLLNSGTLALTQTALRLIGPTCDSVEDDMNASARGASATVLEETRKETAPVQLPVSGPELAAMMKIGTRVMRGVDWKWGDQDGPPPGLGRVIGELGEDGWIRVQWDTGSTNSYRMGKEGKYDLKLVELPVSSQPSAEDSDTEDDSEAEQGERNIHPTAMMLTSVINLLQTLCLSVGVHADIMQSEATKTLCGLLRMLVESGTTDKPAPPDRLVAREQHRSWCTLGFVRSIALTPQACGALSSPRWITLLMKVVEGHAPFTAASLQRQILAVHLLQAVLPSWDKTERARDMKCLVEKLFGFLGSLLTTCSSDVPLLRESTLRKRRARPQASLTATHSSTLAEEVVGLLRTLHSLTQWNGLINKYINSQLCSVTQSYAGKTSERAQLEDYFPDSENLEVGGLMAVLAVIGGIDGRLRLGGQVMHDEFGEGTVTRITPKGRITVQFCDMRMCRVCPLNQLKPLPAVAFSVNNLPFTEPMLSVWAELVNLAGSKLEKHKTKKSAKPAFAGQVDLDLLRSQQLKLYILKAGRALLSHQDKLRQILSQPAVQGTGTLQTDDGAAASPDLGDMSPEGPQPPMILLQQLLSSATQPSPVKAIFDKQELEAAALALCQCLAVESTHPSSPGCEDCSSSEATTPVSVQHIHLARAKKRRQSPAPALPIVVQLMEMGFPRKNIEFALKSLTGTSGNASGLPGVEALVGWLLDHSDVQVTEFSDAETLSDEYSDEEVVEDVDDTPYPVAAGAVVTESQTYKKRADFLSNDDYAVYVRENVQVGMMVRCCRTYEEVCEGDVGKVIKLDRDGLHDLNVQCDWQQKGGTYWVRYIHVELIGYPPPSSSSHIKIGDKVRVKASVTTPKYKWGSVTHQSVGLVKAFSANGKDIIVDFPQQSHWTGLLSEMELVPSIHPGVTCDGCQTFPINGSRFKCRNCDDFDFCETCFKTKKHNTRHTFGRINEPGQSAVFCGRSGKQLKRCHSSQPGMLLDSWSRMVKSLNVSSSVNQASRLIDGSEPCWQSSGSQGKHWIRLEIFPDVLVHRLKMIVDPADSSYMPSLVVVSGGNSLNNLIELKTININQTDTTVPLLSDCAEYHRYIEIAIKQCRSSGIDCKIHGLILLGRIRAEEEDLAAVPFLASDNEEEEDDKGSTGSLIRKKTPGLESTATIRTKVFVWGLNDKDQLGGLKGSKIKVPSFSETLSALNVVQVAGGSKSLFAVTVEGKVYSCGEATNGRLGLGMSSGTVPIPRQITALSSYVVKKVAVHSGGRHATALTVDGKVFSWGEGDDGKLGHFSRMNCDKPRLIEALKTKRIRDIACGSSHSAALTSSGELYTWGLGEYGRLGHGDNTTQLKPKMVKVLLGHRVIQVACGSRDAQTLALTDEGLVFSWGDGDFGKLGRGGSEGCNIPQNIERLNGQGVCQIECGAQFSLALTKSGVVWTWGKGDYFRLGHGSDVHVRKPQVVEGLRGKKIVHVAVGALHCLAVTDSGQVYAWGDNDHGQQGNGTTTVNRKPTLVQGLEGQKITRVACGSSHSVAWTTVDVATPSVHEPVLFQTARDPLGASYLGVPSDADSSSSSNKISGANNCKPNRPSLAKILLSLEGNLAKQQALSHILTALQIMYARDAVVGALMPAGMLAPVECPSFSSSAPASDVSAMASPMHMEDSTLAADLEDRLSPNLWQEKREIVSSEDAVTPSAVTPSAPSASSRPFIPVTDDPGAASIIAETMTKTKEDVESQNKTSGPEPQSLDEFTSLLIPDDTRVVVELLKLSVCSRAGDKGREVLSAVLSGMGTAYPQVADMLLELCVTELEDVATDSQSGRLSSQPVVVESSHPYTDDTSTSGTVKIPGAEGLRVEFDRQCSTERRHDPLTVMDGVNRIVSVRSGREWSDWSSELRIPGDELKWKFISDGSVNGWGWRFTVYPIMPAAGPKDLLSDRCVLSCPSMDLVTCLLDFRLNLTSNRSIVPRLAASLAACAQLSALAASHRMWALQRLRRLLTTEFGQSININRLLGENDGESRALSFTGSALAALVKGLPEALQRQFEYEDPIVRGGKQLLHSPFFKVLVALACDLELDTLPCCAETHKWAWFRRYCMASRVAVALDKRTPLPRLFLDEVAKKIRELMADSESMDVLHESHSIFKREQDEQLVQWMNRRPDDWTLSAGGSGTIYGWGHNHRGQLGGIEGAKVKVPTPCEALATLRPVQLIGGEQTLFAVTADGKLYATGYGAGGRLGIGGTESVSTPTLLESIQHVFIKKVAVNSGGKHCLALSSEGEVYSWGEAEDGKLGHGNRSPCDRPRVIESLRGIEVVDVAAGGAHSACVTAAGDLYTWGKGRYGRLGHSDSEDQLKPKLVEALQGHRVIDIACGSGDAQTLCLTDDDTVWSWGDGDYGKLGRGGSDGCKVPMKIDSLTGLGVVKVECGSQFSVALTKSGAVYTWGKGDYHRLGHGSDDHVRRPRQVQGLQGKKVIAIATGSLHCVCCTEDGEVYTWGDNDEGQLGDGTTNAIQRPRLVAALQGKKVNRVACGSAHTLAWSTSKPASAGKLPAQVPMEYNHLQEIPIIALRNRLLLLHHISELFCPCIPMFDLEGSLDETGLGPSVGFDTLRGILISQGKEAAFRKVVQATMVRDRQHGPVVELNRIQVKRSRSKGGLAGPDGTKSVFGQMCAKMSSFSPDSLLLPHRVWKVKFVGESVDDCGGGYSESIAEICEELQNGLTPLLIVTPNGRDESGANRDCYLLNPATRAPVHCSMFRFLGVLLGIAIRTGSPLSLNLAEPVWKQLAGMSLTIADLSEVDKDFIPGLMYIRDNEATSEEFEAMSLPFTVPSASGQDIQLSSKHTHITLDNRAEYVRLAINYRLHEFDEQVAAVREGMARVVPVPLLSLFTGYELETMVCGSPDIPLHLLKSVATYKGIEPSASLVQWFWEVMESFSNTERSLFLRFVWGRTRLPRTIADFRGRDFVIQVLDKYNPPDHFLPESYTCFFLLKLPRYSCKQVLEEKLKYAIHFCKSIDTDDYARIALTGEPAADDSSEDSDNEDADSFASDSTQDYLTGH

No constants are given. Whether binding was seen depends on the method and setting. Binding seen in cells or lysates may run through a third protein. Some binding calls cover weakened binding; strength is not graded here. Sequences can lack the tags named with a protein.

In this assay the target is T1, FLAG-RNF8 (rat) (UniProt Q4KLN8).
T1 sequence: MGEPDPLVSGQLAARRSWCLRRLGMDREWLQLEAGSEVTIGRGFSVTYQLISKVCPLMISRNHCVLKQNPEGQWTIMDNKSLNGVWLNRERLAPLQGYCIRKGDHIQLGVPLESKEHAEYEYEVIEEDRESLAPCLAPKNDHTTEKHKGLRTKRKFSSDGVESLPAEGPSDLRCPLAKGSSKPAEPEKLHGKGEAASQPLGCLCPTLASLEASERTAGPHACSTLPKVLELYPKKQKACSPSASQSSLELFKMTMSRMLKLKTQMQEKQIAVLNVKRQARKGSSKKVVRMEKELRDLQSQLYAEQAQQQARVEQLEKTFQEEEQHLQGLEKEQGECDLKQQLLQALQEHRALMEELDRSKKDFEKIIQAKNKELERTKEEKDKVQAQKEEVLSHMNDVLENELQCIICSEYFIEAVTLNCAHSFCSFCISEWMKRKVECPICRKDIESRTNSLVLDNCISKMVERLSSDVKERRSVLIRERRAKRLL
Description: co-IP; Lysates of Neuro2A cells constitutively expressing FLAG-RNF8 on FlagM2 agarose beads, 4 h; lysis buffer 50 mM Tris-HCl pH8.0, 150 mM NaCl, 20% glycerol, 1% Triton X-100; immunoblotting. In general terms: A western blot detects proteins with antibodies after separation by electrophoresis.

Turning to “NEURL4 (endogenous, Neuro2A) (from UniProt Q5NCX5 1-1563)”, the binding result was “binds”.

“HERC2 (endogenous, Neuro2A) (from UniProt Q4U2R1 1-4836)”: the binding entry is “binds”.
